Measured values reported in the supplement of paper PMC7580552.
Structures can show the parent of a compound that is named as a salt. The list shows a part of the results. Part of the spread comes from offsets between plates or batches.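 The strain is a K-12 laboratory model grown without shaking in 96-well plates, and biofilm is the crystal violet stain retained on the wells, read as absorbance. Drugs were picked as candidate specific biofilm blockers when they cut staining strongly but slowed free-floating growth by less than 70%.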

Test system: Escherichia coli W3110
Assay: biofilm formation (crystal violet staining) relative to untreated control; higher = more biofilm
Settings: 10 µM; 20-24 h; 30 °C; TB

| SMILES | biofilm formation [%] |
| --- | --- |
| COc1cc(C)c(/C=C/C(C)=C/C=C/C(C)=C/C(=O)O)c(C)c1C [Acitretin] | 57 |
| CC(C)OC(=O)CCC/C=C\C[C@@H]1[C@@H](CC[C@@H](O)CCc2ccccc2)[C@H](O)C[C@@H]1O [Latanoprost] | 72 |
| C[N+]1(C)CCC(=C(c2ccccc2)c2ccccc2)CC1 [Diphemanil methylsulfate] | 91 |
| NS(=O)(=O)c1cc2c(cc1Cl)NCNS2(=O)=O [Hydrochlorothiazide] | 69 |
| CN(C)CCc1c[nH]c2ccc(C[C@H]3COC(=O)N3)cc12 [Zolmitriptan] | 60 |
| CN(C)CCC=C1c2ccccc2C=Cc2ccccc21 [Cyclobenzaprine hydrochloride] | 74 |
| O=c1[nH]c(=O)n([C@H]2C[C@H](O)[C@@H](CO)O2)cc1F [Floxuridine] | 72 |
| CNNCc1ccc(C(=O)NC(C)C)cc1 [Procarbazine hydrochloride] | 98 |
| CCn1cc(C(=O)O)c(=O)c2cc(F)c(N3CCNC(C)C3)c(F)c21 (stereo not given) [Lomefloxacin hydrochloride] | 16 |
| CS(=O)(=O)Nc1ccc([N+](=O)[O-])cc1Oc1ccccc1 [Nimesulide] | 71 |
| COc1cc(C)nc(-n2nc(C)cc2OC)n1 [Epirizole] | 68 |
| CNC(=C[N+](=O)[O-])NCCSCc1csc(CN(C)C)n1 [Nizatidine] | 64 |
| CC(C)CN(C[C@@H](O)[C@H](Cc1ccccc1)NC(=O)O[C@H]1CCOC1)S(=O)(=O)c1ccc(N)cc1 [Amprenavir] | 95 |
| C[C@]12C=CC(=O)C=C1CC[C@@H]1[C@@H]2C(=O)C[C@@]2(C)[C@H]1CC[C@]2(O)C(=O)CO [Prednisone] | 94 |
| C[C@@H]1CN(c2c(F)c(N)c3c(=O)c(C(=O)O)cn(C4CC4)c3c2F)C[C@H](C)N1 [Sparfloxacin] | 9 |
| CCn1cc(C(=O)O)c(=O)c2cc(F)c(N3CCN(C)CC3)cc21 [Pefloxacine] | 2 |
| CCC(=O)[C@@]1(C)[C@H](C)C[C@H]2[C@@H]3CCC4=CC(=O)C=C[C@]4(C)[C@H]3[C@@H](O)C[C@@]21C [Rimexolone] | 107 |
| CC(=O)Nc1c(I)c(NC(C)=O)c(I)c(C(=O)O)c1I [Diatrizoic acid dihydrate] | 59 |
| CCc1cc(C(N)=S)ccn1 [Ethionamide] | 63 |
| CN(N=O)C(=O)N[C@@H](C=O)[C@@H](O)[C@H](O)[C@H](O)CO [Streptozotocin] | 71 |
| CN1CCN(C(c2ccccc2)c2ccc(Cl)cc2)CC1 (stereo not given) [Chlorcyclizine hydrochloride] | 71 |
| O=C(N/N=C/c1ccc([N+](=O)[O-])o1)c1ccc(O)cc1 [Nifuroxazide] | 90 |
| Cc1ccc(/C(=C\CN2CCCC2)c2ccccn2)cc1 [Triprolidine hydrochloride] | 65 |

Reformatted with tabs: part of the list above.
SMILES	biofilm formation [%]
CC(C)OC(=O)CCC/C=C\C[C@@H]1[C@@H](CC[C@@H](O)CCc2ccccc2)[C@H](O)C[C@@H]1O [Latanoprost]	72
C[N+]1(C)CCC(=C(c2ccccc2)c2ccccc2)CC1 [Diphemanil methylsulfate]	91

Later entries.

| SMILES | biofilm formation [%] |
| --- | --- |
| CC(C)(O/N=C(\C(=O)N[C@@H]1C(=O)N2C(C(=O)[O-])=C(C[n+]3ccccc3)CS[C@H]12)c1csc(N)n1)C(=O)O [Ceftazidime pentahydrate] | 1 |
| Cc1c(Cl)cccc1Nc1ncccc1C(=O)O [Clonixin Lysinate] | 76 |
| CNCCC=C1c2ccccc2CCc2ccccc21 [Nortriptyline hydrochloride] | 47 |
| C[C@H]1[C@H](NC(=O)/C(=N\OC(C)(C)C(=O)O)c2csc(N)n2)C(=O)N1S(=O)(=O)O [Aztreonam] | 9 |
| CCc1c2c(nc3ccc(OC(=O)N4CCC(N5CCCCC5)CC4)cc13)-c1cc3c(c(=O)n1C2)COC(=O)[C@]3(O)CC [Irinotecan hydrochloride trihydrate] | 52 |
| COC(=O)[C@H]1[C@H]2C[C@@H]3c4[nH]c5cc(OC)ccc5c4CCN3C[C@H]2C[C@@H](OC(=O)c2cc(OC)c(OC)c(OC)c2)[C@@H]1OC [Reserpine] | 77 |
| CNC(=C[N+](=O)[O-])NCCSCc1ccc(CN(C)C)o1 [Ranitidine hydrochloride] | 81 |
| CC(C)C[C@H](NC(=O)[C@@H](O)[C@H](N)Cc1ccccc1)C(=O)O [Ubenimex] | 54 |
| CCOC(=O)Nc1ccc2c(c1)N(C(=O)CCN1CCOCC1)c1ccccc1S2 [Moricizine hydrochloride] | 93 |
| C#C[C@]1(O)CC[C@H]2[C@@H]3CCc4cc(OC)ccc4[C@H]3CC[C@@]21C [Ethynylestradiol 3-methyl ether] | 60 |
| CC(C)NCC(O)c1ccc(NS(C)(=O)=O)cc1 (stereo not given) [Sotalol hydrochloride] | 96 |
| CC(=O)N1CCN(c2ccc(OCC3COC(Cn4ccnc4)(c4ccc(Cl)cc4Cl)O3)cc2)CC1 (stereo not given) [Ketoconazole] | 93 |
| CN(CCOc1ccc(NS(C)(=O)=O)cc1)CCc1ccc(NS(C)(=O)=O)cc1 [Dofetilide] | 78 |
| CCN(CC)CCCC(C)Nc1c2ccc(Cl)cc2nc2ccc(OC)cc12 (stereo not given) [Quinacrine dihydrochloride hydrate] | 90 |
| CCCCCCCCCCCCCCCC[N+](C)(C)CCN(Cc1ccc(OC)cc1)c1ncccn1 [Thonzonium bromide] | 11 |
| CO[C@@]1(NC(=O)C(C(=O)O)c2ccc(O)cc2)C(=O)N2C(C(=O)O)=C(CSc3nnnn3C)CO[C@@H]21 (stereo not given in full) [Moxalactam disodium salt] | 11 |
| C#C[C@]1(O)CC[C@H]2[C@@H]3CCC4=CC(=O)CC[C@@H]4[C@H]3CC[C@@]21C [Norethindrone] | 60 |
| C#C[C@]1(OC(C)=O)CC[C@H]2[C@@H]3CCC4=C[C@@H](OC(C)=O)CC[C@@H]4[C@H]3CC[C@@]21C [Ethynodiol diacetate] | 60 |
| Nc1ccc(S(=O)(=O)Nc2ncccn2)cc1 [Sulfadiazine] | 34 |
| CCN(CC)CCOC(=O)C1(c2ccc([N+](=O)[O-])cc2)CCCC1 [Nitrocaramiphen hydrochloride] | 82 |
| Clc1ccccc1CN1CCc2sccc2C1 [Ticlopidine hydrochloride] | 75 |
| Nc1ccc(O)c(C(=O)O)c1 [Mesalamine] | 69 |
